Laboratory results: patent publication US9517222B2, “Method for the treatment of senile dementia of the Alzheimer's type” (Phenomenome Discoveries Inc., priority 2007, dated 2016)
A unit is not stated for every read-out.

How the values were obtained:
[1] = Serum ethanolamine phospholipid levels in human cohorts (dementia severity, post-mortem pathology, age) by flow-injection MS/MS
[2] = Serum ethanolamine phospholipid ratios to PtdEt 16:0/18:0 (M01) in human cohorts
[3] = serum, females, post mortem SDAT
[4] = serum, females, post mortem control

CCCCC/C=C\C/C=C\CCCCCCCC(=O)OC(COCCCCCCCCCCCCCCCCCC)COP(=O)(O)OCCN (centres unmarked) [Metabolite M11, Plasmanyl 18:0/18:2]
Ratio of serum levels ([1]; AD, All to CN, Male): 0.866 | Ratio of serum levels ([1]; ADAS 5-19 to CN, Male): 0.861 | Ratio of serum levels ([1]; ADAS 20-39 to 5-19, Male): 1.000 | Ratio of serum levels ([1]; ADAS 20-39 to CN, Male): 0.861 | Ratio of serum levels ([1]; ADAS 40-70 to 5-19, Male): 0.927 | Ratio of serum levels ([1]; ADAS 40-70 to 20-39, Male): 0.927 | Ratio of serum levels ([1]; ADAS 40-70 to CN, Male): 0.798 | Serum level, Mean ([1]; Cognitive Normal, Female): 0.105 | Average serum level, Mean ([1]; Cognitive Normal, Male): 0.110 | Serum level, Mean ([1]; Post Mortem Ctl, Male): 0.052 | Serum level, Mean ([1]; Post Mortem SDAT Male): 0.041 | Ratio of serum levels ([1]; Post mortem SDAT vs Control, Male): 0.474 | Serum level, Mean ([1]; SDAT, ADAS 5-19, Female): 0.094 | Average serum level, Mean ([1]; SDAT, ADAS 5-19, Male): 0.095 | Serum level, Mean ([1]; SDAT, ADAS 20-39, Female): 0.090 | Average serum level, Mean ([1]; SDAT, ADAS 20-39, Male): 0.095 | Serum level, Mean ([1]; SDAT, ADAS 40-70, Female): 0.080 | Average serum level, Mean ([1]; SDAT, ADAS 40-70, Male): 0.088 | Serum level, Mean ([1]; SDAT_all, Female): 0.088 | Average serum level, Mean ([1]; SDAT_all, Male): 0.095 | Ratio, ADAS 5-19 to CN, Female ([1]; serum level ratio, females, ADAS 5-19 vs CN): 0.894 | Ratio, ADAS 20-39 to 5-19, Female ([1]; serum level ratio, females, ADAS 20-39 vs ADAS 5-19): 0.951 | Ratio, ADAS 20-39 to CN, Female ([1]; serum level ratio, females, ADAS 20-39 vs CN): 0.850 | Ratio, ADAS 40-70 to 5-19, Female ([1]; serum level ratio, females, ADAS 40-70 vs ADAS 5-19): 0.853 | Ratio, ADAS 40-70 to 20-39, Female ([1]; serum level ratio, females, ADAS 40-70 vs ADAS 20-39): 0.896 | Ratio, ADAS 40-70 to CN, Female ([1]; serum level ratio, females, ADAS 40-70 vs CN): 0.762 | Ratio, 50-59 vs. 40-49, Female ([1]; serum level ratio, females, age 50-59 vs 40-49): 0.843 | Ratio, 60-69 vs. 40-49, Female ([1]; serum level ratio, females, age 60-69 vs 40-49): 0.832 | Ratio, 70+ vs. 40-49, Female ([1]; serum level ratio, females, age 70+ vs 40-49): 0.843 | Ratio, AD, All to CN, Female ([1]; serum level ratio, females, all AD vs cognitively normal): 0.832 | Ratio, Autopsy AD vs. Control, Female ([1]; serum level ratio, females, autopsy AD vs control): 0.650 | Ratio, 50-59 vs. 40-49, Male ([1]; serum level ratio, males, age 50-59 vs 40-49): 0.992 | Ratio, 60-69 vs. 40-49, Male ([1]; serum level ratio, males, age 60-69 vs 40-49): 1.004 | Ratio, 70+ vs. 40-49, Male ([1]; serum level ratio, males, age 70+ vs 40-49): 1.058 | Mean serum level, Age Ctl, 30-39, Female ([1]; serum, females, age 30-39): 0.120 | Mean serum level, Age Ctl, 40-49, Female ([1]; serum, females, age 40-49): 0.119 | Mean serum level, Age Ctl, 50-59, Female ([1]; serum, females, age 50-59): 0.100 | Mean serum level, Age Ctl, 60-69, Female ([1]; serum, females, age 60-69): 0.099 | Mean serum level, Age Ctl, 70+, Female ([1]; serum, females, age 70+): 0.100 | Mean serum level, Post Mortem SDAT, Female [1, 3]: 0.025 | Mean serum level, Post Mortem Ctl, Female [1, 4]: 0.064 | Mean serum level, Age Ctl, 30-39, Male ([1]; serum, males, age 30-39): 0.131 | Mean serum level, Age Ctl, 40-49, Male ([1]; serum, males, age 40-49): 0.099 | Mean serum level, Age Ctl, 50-59, Male ([1]; serum, males, age 50-59): 0.098 | Mean serum level, Age Ctl, 60-69, Male ([1]; serum, males, age 60-69): 0.099 | Mean serum level, Age Ctl, 70+, Male ([1]; serum, males, age 70+): 0.104 | Ratio of ethanolamine phospholipid ratios to M01 between cohorts ([2]; AD, All to CN, Male): 0.830 | Ratio of ethanolamine phospholipid ratios to M01 between cohorts ([2]; ADAS 5-19 to CN, Male): 0.841 | Ratio of ethanolamine phospholipid ratios to M01 between cohorts ([2]; ADAS 20-39 to CN, Male): 0.837 | Ratio of ethanolamine phospholipid ratios to M01 between cohorts ([2]; ADAS 40-70 to CN, Male): 0.773 | Average serum ethanolamine phospholipid ratio to M01, Mean ([2]; Cognitive Normal, Male, serum): 0.985 | Average serum ethanolamine phospholipid ratio to M01, Mean ([2]; SDAT, ADAS 5-19, Male, serum): 0.828 | Average serum ethanolamine phospholipid ratio to M01, Mean ([2]; SDAT, ADAS 20-39, Male, serum): 0.824 | Average serum ethanolamine phospholipid ratio to M01, Mean ([2]; SDAT, ADAS 40-70, Male, serum): 0.761 | Average serum ethanolamine phospholipid ratio to M01, Mean ([2]; SDAT_all, Male, serum): 0.817 | Ethanolamine Phospholipid Ratio to M01, Mean, Age Ctl, 30-39, Female ([2]; human serum, females aged 30-39): 1.220 | Ethanolamine Phospholipid Ratio to M01, Mean, Age Ctl, 40-49, Female ([2]; human serum, females aged 40-49): 1.092 | Ethanolamine Phospholipid Ratio to M01, Mean, Age Ctl, 50-59, Female ([2]; human serum, females aged 50-59): 1.021 | Ratio of Ethanolamine Phospholipid Ratio to M01, 50-59 vs. 40-49, Female ([2]; human serum, females aged 50-59 vs. females aged 40-49): 0.935 | Ethanolamine Phospholipid Ratio to M01, Mean, Age Ctl, 60-69, Female ([2]; human serum, females aged 60-69): 0.823 | Ratio of Ethanolamine Phospholipid Ratio to M01, 60-69 vs. 40-49, Female ([2]; human serum, females aged 60-69 vs. females aged 40-49): 0.754 | Ethanolamine Phospholipid Ratio to M01, Mean, Age Ctl, 70+_Female ([2]; human serum, females aged 70+): 0.840 | Ratio of Ethanolamine Phospholipid Ratio to M01, 70+ vs. 40-49, Female ([2]; human serum, females aged 70+ vs. females aged 40-49): 0.770 | Ratio of Ethanolamine Phospholipid Ratio to M01, 50-59 vs. 40-49, Male ([2]; human serum, males aged 50-59 vs. males aged 40-49): 1.010 | Ratio of Ethanolamine Phospholipid Ratio to M01, 60-69 vs. 40-49, Male ([2]; human serum, males aged 60-69 vs. males aged 40-49): 0.878 | Ratio of Ethanolamine Phospholipid Ratio to M01, 70+ vs. 40-49, Male ([2]; human serum, males aged 70+ vs. males aged 40-49): 0.903 | Ratio of ethanolamine phospholipid ratio to M01, ADAS 5-19 to CN, Female ([2]; serum, females, ADAS 5-19 vs cognitive normal): 0.953 | Ratio of ethanolamine phospholipid ratio to M01, ADAS 20-39 to 5-19, Female ([2]; serum, females, ADAS 20-39 vs ADAS 5-19): 0.947 | Ratio of ethanolamine phospholipid ratio to M01, ADAS 20-39 to CN, Female ([2]; serum, females, ADAS 20-39 vs cognitive normal): 0.902 | Ratio of ethanolamine phospholipid ratio to M01, ADAS 40-70 to 5-19, Female ([2]; serum, females, ADAS 40-70 vs ADAS 5-19): 0.799 | Ratio of ethanolamine phospholipid ratio to M01, ADAS 40-70 to 20-39, Female ([2]; serum, females, ADAS 40-70 vs ADAS 20-39): 0.844 | Ratio of ethanolamine phospholipid ratio to M01, ADAS 40-70 to CN, Female ([2]; serum, females, ADAS 40-70 vs cognitive normal): 0.762 | Ethanolamine phospholipid ratio to M01, Mean, SDAT, ADAS 5-19, Female ([2]; serum, females, SDAT ADAS 5-19): 0.886 | Ethanolamine phospholipid ratio to M01, Mean, SDAT, ADAS 20-39, Female ([2]; serum, females, SDAT ADAS 20-39): 0.839 | Ethanolamine phospholipid ratio to M01, Mean, SDAT, ADAS 40-70, Female ([2]; serum, females, SDAT ADAS 40-70): 0.708 | Ratio of ethanolamine phospholipid ratio to M01, AD, All to CN, Female ([2]; serum, females, all AD vs cognitive normal): 0.868 | Ethanolamine phospholipid ratio to M01, Mean, SDAT_all Female ([2]; serum, females, all SDAT): 0.807 | Ratio of ethanolamine phospholipid ratio to M01, Autopsy AD vs. Control, Female ([2]; serum, females, autopsy AD vs post mortem control): 0.950 | Ethanolamine phospholipid ratio to M01, Mean, Cognitive Normal, Female ([2]; serum, females, cognitive normal): 0.929 | Ethanolamine phospholipid ratio to M01, Mean, Post Mortem SDAT Female [2, 3]: 0.364 | Ethanolamine phospholipid ratio to M01, Mean, Post Mortem Ctl, Female [2, 4]: 0.384 | Ratio of ethanolamine phospholipid ratio to M01, ADAS 20-39 to 5-19, Male ([2]; serum, males, SDAT ADAS 20-39 vs ADAS 5-19): 0.995 | Ratio of ethanolamine phospholipid ratio to M01, ADAS 40-70 to 5-19, Male ([2]; serum, males, SDAT ADAS 40-70 vs ADAS 5-19): 0.919 | Ratio of ethanolamine phospholipid ratio to M01, ADAS 40-70 to 20-39, Male ([2]; serum, males, SDAT ADAS 40-70 vs ADAS 20-39): 0.924 | Ethanolamine phospholipid ratio to M01, Mean, Age Ctl, 30-39, Male ([2]; serum, males, age control 30-39): 1.063 | Ethanolamine phospholipid ratio to M01, Mean, Age Ctl, 40-49, Male ([2]; serum, males, age control 40-49): 0.899 | Ethanolamine phospholipid ratio to M01, Mean, Age Ctl, 50-59, Male ([2]; serum, males, age control 50-59): 0.908 | Ethanolamine phospholipid ratio to M01, Mean, Age Ctl, 60-69, Male ([2]; serum, males, age control 60-69): 0.789 | Ethanolamine phospholipid ratio to M01, Mean, Age Ctl, 70+_Male ([2]; serum, males, age control 70+): 0.811 | Ethanolamine phospholipid ratio to M01, Mean, Post Mortem SDAT Male ([2]; serum, males, post mortem SDAT): 0.272 | Ratio of ethanolamine phospholipid ratio to M01, SDAT vs Control (post mortem, males) ([2]; serum, males, post mortem SDAT vs post mortem control): 0.602 | Ethanolamine phospholipid ratio to M01, Mean, Post Mortem Ctl, Male ([2]; serum, males, post mortem control): 0.452
